For one molecule, IC50 results are on record in patent US8846912B2, “Tartrate salts of quinazoline based EGFR inhibitors containing a zinc binding moiety” (Curis, Inc., priority 2007, dated 2014).

Common to all, as to assay: Cell proliferation assay (ATPlite)
Holding throughout (format): cell-based

One experiment relates to Colon_HCT116. Conditions: HCT116, Colon cancer (Table D); read-out: IC50 in cancer cell line. The procedure: (§1) Cell Proliferation Assay:
(§2) Cancer cell lines were plated at 5,000 to 10,000 per well in 96-well flatted bottomed plates with various concentration of compounds. The cells were incubated with compounds for 72 hours in the presence of 0.5% of fetal bovine serum. Growth inhibition was accessed by adenosine triphosphate (ATP) content assay using Perkin Elmer ATPlite kit. ATPlite is an ATP monitoring system based on firefly luciferase. Briefly, 25 μl of mammalian cell lysis solution was added to 50 μl of phenol red-free culture medium per well to lyse the cells and stabilize the ATP. 25 μl of substrate solution was then added to the well and subsequently the luminescence was measured.

The test system of a further experiment is Breast_MCF7. The settings on record: MCF-7, Breast adenocarcinoma (Table D); read-out: IC50 in cancer cell line. As to the method:
as §1, §2

In the next experiment the test system is Prostate_22RV1. The settings on record: 22RV1, Prostate carcinoma (Table D); read-out: IC50 in cancer cell line. The procedure: as §1, §2
The subject of experiment [1] is MDA-MB-231 Breast adenocarcinoma. The settings on record: MDA-MB-231, Breast adenocarcinoma (Table D); read-out: IC50 in cancer cell line. The procedure:
as §1, §2

In a further experiment the test system is Prostate_PC3. Conditions: PC-3, Prostate adenocarcinoma (Table D); read-out: IC50 in cancer cell line. As to the method:
as §1, §2

A further experiment concerns Breast_MDAMB468. Conditions: MDA-MB-468, Breast adenocarcinoma (Table D); read-out: IC50 in cancer cell line. As to the method:
as §1, §2

The subject of another experiment is Caki-1 Renal carcinoma. The settings on record: Caki-1, Renal carcinoma (Table D); read-out: IC50 in cancer cell line. The procedure: as §1, §2
In a further experiment the test system is Breast_SkBr3. Conditions: SKBr3, Breast carcinoma (Table D); read-out: IC50 in cancer cell line. The procedure:
as §1, §2

In the next experiment the test system is Epidermoid_A431. Conditions: A431, Epidermoid carcinoma (Table D); read-out: IC50 in cancer cell line. The procedure: as §1, §2

One may read the IC50 as the concentration at which inhibition is half-maximal. For `O=C(CCCCCCC(=O)Nc1ccccc1)NO` [SAHA], the IC50 in the experiment with Colon_HCT116 fell in the range of 500 to 5000 nM; with Breast_MCF7, 500 to 5000 nM; in the experiment with Prostate_22RV1 it was 50 to 500 nM; in experiment [1], 50 to 500 nM; with Prostate_PC3 it was 500 to 5000 nM; with Breast_MDAMB468 it was 500 to 5000 nM. In addition, the values for the IC50 with Caki-1 Renal carcinoma, in the experiment on Breast_SkBr3 and in the experiment with Epidermoid_A431 were 50 to 500 nM, 500 to 5000 nM and 500 to 5000 nM, respectively.
